# Measurements taken from PMC8384837.
# Where a chain is given by its changes, count along the chain named. The list shows a part of the results. For some assays here: At the low end of the ranking the order means little.
# Key:
# Details in all cases: yeast three-hybrid, YBZ-1, SC-Leu-His + 0.5 mM 3-AT, 4 days
# [1] = target: T1, PUM1 PUF domain R4-GMG N971G + H972M + Q975G (UniProt Q14671)
# T1 sequence: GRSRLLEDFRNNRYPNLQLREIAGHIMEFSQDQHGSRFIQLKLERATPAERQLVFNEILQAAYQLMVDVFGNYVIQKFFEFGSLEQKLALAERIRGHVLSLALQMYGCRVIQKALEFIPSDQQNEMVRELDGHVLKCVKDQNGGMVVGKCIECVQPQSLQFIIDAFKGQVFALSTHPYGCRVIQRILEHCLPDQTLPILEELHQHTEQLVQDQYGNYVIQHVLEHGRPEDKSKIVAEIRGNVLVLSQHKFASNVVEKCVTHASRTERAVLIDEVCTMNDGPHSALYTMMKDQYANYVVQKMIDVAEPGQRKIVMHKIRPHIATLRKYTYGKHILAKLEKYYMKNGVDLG
# [2] = target: T2, PUM1 PUF domain R4-GNC N971G + H972N + Q975C (UniProt Q14671)
# T2 sequence: T1 sequence with M145N, G148C
# [3] = target: T3, PUM1 PUF domain R4-GNG N971G + H972N + Q975G (UniProt Q14671)
# T3 sequence: T1 sequence with M145N
# [4] = target: T4, PUM1 PUF domain R4-GNL N971G + H972N + Q975L (UniProt Q14671)
# T4 sequence: T1 sequence with M145N, G148L
# [5] = target: T5, PUM1 PUF domain R4-GNR N971G + H972N + Q975R (UniProt Q14671)
# T5 sequence: T1 sequence with M145N, G148R
# [6] = target: T6, PUM1 PUF domain R4-GNS N971G + H972N + Q975S (UniProt Q14671)
# T6 sequence: T1 sequence with M145N, G148S
# [7] = target: T7, PUM1 PUF domain R4-GNT N971G + H972N + Q975T (UniProt Q14671)
# T7 sequence: T1 sequence with M145N, G148T
# [8] = target: T8, PUM1 PUF domain R4-GNV N971G + H972N + Q975V (UniProt Q14671)
# T8 sequence: T1 sequence with M145N, G148V
# [9] = target: T9, PUM1 PUF domain R4-GPA N971G + H972P + Q975A (UniProt Q14671)
# T9 sequence: T1 sequence with M145P, G148A
# [10] = target: T10, PUM1 PUF domain R4-GPC N971G + H972P + Q975C (UniProt Q14671)
# T10 sequence: T1 sequence with M145P, G148C
# [11] = target: T11, PUM1 PUF domain R4-GPG N971G + H972P + Q975G (UniProt Q14671)
# T11 sequence: T1 sequence with M145P
# [12] = target: T12, PUM1 PUF domain R4-GPH N971G + H972P + Q975H (UniProt Q14671)
# T12 sequence: T1 sequence with M145P, G148H
# [13] = target: T13, PUM1 PUF domain R4-GPN N971G + H972P + Q975N (UniProt Q14671)
# T13 sequence: T1 sequence with M145P, G148N
# [14] = target: T14, PUM1 PUF domain R4-GPQ N971G + H972P (UniProt Q14671)
# T14 sequence: T1 sequence with M145P, G148Q
# [15] = target: T15, PUM1 PUF domain R4-GPR N971G + H972P + Q975R (UniProt Q14671)
# T15 sequence: T1 sequence with M145P, G148R
# [16] = target: T16, PUM1 PUF domain R4-GPS N971G + H972P + Q975S (UniProt Q14671)
# T16 sequence: T1 sequence with M145P, G148S
# [17] = target: T17, PUM1 PUF domain R4-GPT N971G + H972P + Q975T (UniProt Q14671)
# T17 sequence: T1 sequence with M145P, G148T
# [18] = target: T18, PUM1 PUF domain R4-GPY N971G + H972P + Q975Y (UniProt Q14671)
# T18 sequence: T1 sequence with M145P, G148Y
# [19] = target: T19, PUM1 PUF domain R4-GQG N971G + H972Q + Q975G (UniProt Q14671)
# T19 sequence: T1 sequence with M145Q
# [20] = target: T20, PUM1 PUF domain R4-GQR N971G + H972Q + Q975R (UniProt Q14671)
# T20 sequence: T1 sequence with M145Q, G148R
# [21] = target: T21, PUM1 PUF domain R4-GQS N971G + H972Q + Q975S (UniProt Q14671)
# T21 sequence: T1 sequence with M145Q, G148S
# [22] = target: T22, PUM1 PUF domain R4-GRA N971G + H972R + Q975A (Homo sapiens) (UniProt Q14671)
# T22 sequence: T1 sequence with M145R, G148A
# [23] = target: T23, PUM1 PUF domain R4-GRC N971G + H972R + Q975C (Homo sapiens) (UniProt Q14671)
# T23 sequence: T1 sequence with M145R, G148C
# [24] = target: T24, PUM1 PUF domain R4-GRG N971G + H972R + Q975G (Homo sapiens) (UniProt Q14671)
# T24 sequence: T1 sequence with M145R
# [25] = target: T25, PUM1 PUF domain R4-GRI N971G + H972R + Q975I (UniProt Q14671)
# T25 sequence: T1 sequence with M145R, G148I
# [26] = target: T26, PUM1 PUF domain R4-GRN N971G + H972R + Q975N (UniProt Q14671)
# T26 sequence: T1 sequence with M145R, G148N
# [27] = target: T27, PUM1 PUF domain R4-GRR N971G + H972R + Q975R (UniProt Q14671)
# T27 sequence: T1 sequence with M145R, G148R
# [28] = target: T28, PUM1 PUF domain R4-GRS N971G + H972R + Q975S (Homo sapiens) (UniProt Q14671)
# T28 sequence: T1 sequence with M145R, G148S
# [29] = target: T29, PUM1 PUF domain R4-GSQ N971G + H972S (UniProt Q14671)
# T29 sequence: T1 sequence with M145S, G148Q
# [30] = target: T30, PUM1 PUF domain R4-GWP N971G + H972W + Q975P (UniProt Q14671)
# T30 sequence: T1 sequence with M145W, G148P
# [31] = target: T31, PUM1 PUF domain R4-GYP N971G + H972Y + Q975P (UniProt Q14671)
# T31 sequence: T1 sequence with M145Y, G148P
# [32] = target: T32, PUM1 PUF domain R4-HNV N971H + H972N + Q975V (UniProt Q14671)
# T32 sequence: T1 sequence with G144H, M145N, G148V
# [33] = target: T33, PUM1 PUF domain R4-HRG N971H + H972R + Q975G (UniProt Q14671)
# T33 sequence: T1 sequence with G144H, M145R
# [34] = target: T34, PUM1 PUF domain R4-HWP N971H + H972W + Q975P (UniProt Q14671)
# T34 sequence: T1 sequence with G144H, M145W, G148P
# [35] = target: T35, PUM1 PUF domain R4-INC N971I + H972N + Q975C (UniProt Q14671)
# T35 sequence: T1 sequence with G144I, M145N, G148C
# [36] = target: T36, PUM1 PUF domain R4-LGC N971L + H972G + Q975C (UniProt Q14671)
# T36 sequence: T1 sequence with G144L, M145G, G148C
# [37] = target: T37, PUM1 PUF domain R4-LGL N971L + H972G + Q975L (UniProt Q14671)
# T37 sequence: T1 sequence with G144L, M145G, G148L
# [38] = target: T38, PUM1 PUF domain R4-LGM N971L + H972G + Q975M (UniProt Q14671)
# T38 sequence: T1 sequence with G144L, M145G, G148M
sequence,measurement,setting,value
GGCUAGAACUAGUGGAUCCCCCGGCGCCCGGCGGCUCGAGCCCGGGUAAGUGUAGAUAGUCUGCAUGCCGCCGGGCGCCAUGCCUGCAGGUCGACUCUAGAAAACAUG,binding signal (log2 enrichment (interaction score)),[1],-5.05
same,binding signal (log2 enrichment (interaction score)),[2],< -6.31
same,binding signal (log2 enrichment (interaction score)),[3],< -6.31
same,binding signal (log2 enrichment (interaction score)),[4],< -7.37
same,binding signal (log2 enrichment (interaction score)),[5],< -7.46
same,binding signal (log2 enrichment (interaction score)),[6],< -5.97
same,binding signal (log2 enrichment (interaction score)),[7],< -7.3
same,binding signal (log2 enrichment (interaction score)),[8],< -7.81
same,binding signal (log2 enrichment (interaction score)),[9],< -8.22
same,binding signal (log2 enrichment (interaction score)),[10],< -6.02
same,binding signal (log2 enrichment (interaction score)),[11],< -8.64
same,binding signal (log2 enrichment (interaction score)),[12],< -6.65
same,binding signal (log2 enrichment (interaction score)),[13],< -5.44
same,binding signal (log2 enrichment (interaction score)),[14],< -6.18
same,binding signal (log2 enrichment (interaction score)),[15],< -8.3
same,binding signal (log2 enrichment (interaction score)),[16],< -7.29
same,binding signal (log2 enrichment (interaction score)),[17],< -5.78
same,binding signal (log2 enrichment (interaction score)),[18],< -5.6
same,binding signal (log2 enrichment (interaction score)),[19],< -6.89
same,binding signal (log2 enrichment (interaction score)),[20],< -6.61
same,binding signal (log2 enrichment (interaction score)),[21],< -7.69
same,binding signal (log2 enrichment (interaction score)),[22],-3.02
same,binding signal (log2 enrichment (interaction score)),[23],-1.15
same,binding signal (log2 enrichment (interaction score)),[24],-4.17
same,binding signal (log2 enrichment (interaction score)),[25],-5.83
same,binding signal (log2 enrichment (interaction score)),[26],< -5.57
same,binding signal (log2 enrichment (interaction score)),[27],-7.51
same,binding signal (log2 enrichment (interaction score)),[28],-0.94
same,binding signal (log2 enrichment (interaction score)),[29],< -7.05
same,binding signal (log2 enrichment (interaction score)),[30],< -6.3
same,binding signal (log2 enrichment (interaction score)),[31],< -6.8
same,binding signal (log2 enrichment (interaction score)),[32],< -5.74
same,binding signal (log2 enrichment (interaction score)),[33],< -5.85
same,binding signal (log2 enrichment (interaction score)),[34],< -6.3
same,binding signal (log2 enrichment (interaction score)),[35],< -4.9
same,binding signal (log2 enrichment (interaction score)),[36],< -8.45
same,binding signal (log2 enrichment (interaction score)),[37],< -8.6
same,binding signal (log2 enrichment (interaction score)),[38],< -6.61

# 2 neighbouring records already listed:
sequence,measurement,setting,value
GGCUAGAACUAGUGGAUCCCCCGGCGCCCGGCGGCUCGAGCCCGGGUAAGUGUAGAUAGUCUGCAUGCCGCCGGGCGCCAUGCCUGCAGGUCGACUCUAGAAAACAUG,binding signal (log2 enrichment (interaction score)),[17],< -5.78
same,binding signal (log2 enrichment (interaction score)),[18],< -5.6
